# Results: the supplement of paper PMC12819154, “High-throughput peptide-centric local stability assay extends protein–ligand identification to membrane proteins, tissues and bacteria” (Nature Structural & Molecular Biology, 2025)
# Chains of the proteins cited; added tags and fusions are not shown. Lines headed by an entry give the natural chain unless they say otherwise; changes in a name come on top.
# UniProt Q46810: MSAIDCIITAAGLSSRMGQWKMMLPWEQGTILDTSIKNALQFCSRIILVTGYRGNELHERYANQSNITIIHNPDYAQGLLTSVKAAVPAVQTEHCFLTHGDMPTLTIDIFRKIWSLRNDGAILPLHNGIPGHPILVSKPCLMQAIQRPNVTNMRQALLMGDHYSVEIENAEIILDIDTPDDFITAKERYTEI
# UniProt Q47690: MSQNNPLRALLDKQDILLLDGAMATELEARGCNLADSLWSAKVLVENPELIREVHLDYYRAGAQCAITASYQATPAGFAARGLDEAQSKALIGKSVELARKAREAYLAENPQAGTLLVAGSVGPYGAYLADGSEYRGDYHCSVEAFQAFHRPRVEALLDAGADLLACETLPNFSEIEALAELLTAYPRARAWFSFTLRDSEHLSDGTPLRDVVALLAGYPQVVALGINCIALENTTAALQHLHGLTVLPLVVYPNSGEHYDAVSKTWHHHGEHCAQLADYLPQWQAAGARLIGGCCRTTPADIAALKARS
# UniProt P77737: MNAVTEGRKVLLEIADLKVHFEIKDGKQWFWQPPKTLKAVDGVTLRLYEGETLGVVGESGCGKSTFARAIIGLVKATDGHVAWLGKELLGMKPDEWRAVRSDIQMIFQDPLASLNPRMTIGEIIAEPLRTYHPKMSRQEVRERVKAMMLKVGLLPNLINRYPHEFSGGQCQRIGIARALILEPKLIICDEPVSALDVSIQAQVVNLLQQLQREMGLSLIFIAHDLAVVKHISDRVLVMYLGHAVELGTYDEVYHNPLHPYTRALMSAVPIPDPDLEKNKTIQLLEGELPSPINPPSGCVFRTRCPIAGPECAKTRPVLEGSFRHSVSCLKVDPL
# UniProt P77743: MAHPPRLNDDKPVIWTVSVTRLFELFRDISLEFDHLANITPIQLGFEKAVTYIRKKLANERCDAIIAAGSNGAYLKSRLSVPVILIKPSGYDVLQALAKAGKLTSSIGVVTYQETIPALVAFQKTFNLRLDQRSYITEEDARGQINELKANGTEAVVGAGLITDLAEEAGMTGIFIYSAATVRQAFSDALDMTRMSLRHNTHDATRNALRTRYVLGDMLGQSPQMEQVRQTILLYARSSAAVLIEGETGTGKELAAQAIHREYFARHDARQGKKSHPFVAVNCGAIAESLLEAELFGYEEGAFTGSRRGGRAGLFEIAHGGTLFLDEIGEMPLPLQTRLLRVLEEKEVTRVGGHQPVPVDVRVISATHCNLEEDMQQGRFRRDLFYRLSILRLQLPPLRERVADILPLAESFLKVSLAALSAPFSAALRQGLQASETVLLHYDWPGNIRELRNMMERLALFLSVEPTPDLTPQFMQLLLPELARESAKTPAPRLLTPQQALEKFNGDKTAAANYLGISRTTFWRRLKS
# UniProt P77795: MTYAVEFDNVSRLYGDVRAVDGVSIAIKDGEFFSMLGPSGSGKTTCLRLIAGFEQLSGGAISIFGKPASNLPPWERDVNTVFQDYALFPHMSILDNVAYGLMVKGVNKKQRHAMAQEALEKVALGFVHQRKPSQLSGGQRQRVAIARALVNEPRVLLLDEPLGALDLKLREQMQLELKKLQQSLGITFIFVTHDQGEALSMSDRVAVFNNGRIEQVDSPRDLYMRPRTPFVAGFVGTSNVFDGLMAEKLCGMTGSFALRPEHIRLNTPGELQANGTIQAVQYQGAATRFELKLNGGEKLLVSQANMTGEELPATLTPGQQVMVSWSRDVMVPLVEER
# UniProt Q46904: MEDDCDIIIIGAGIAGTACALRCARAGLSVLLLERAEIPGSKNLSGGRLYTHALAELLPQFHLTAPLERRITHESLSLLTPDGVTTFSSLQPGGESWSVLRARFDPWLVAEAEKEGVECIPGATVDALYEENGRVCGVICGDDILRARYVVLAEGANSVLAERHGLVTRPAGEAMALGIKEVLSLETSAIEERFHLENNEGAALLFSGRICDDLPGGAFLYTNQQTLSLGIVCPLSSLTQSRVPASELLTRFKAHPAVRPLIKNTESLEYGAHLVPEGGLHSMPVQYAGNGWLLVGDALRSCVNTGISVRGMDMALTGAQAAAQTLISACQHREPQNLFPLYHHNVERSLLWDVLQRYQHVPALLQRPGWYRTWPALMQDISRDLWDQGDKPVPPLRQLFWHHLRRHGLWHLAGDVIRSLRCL
# UniProt Q46809: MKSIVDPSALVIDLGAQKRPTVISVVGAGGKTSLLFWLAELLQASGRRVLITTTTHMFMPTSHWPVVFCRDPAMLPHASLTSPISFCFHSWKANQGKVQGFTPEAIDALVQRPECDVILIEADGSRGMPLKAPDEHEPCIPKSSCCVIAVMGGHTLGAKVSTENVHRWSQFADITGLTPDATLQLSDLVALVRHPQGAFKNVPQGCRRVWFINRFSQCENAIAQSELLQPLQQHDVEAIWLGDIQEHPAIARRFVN
# UniProt Q46915: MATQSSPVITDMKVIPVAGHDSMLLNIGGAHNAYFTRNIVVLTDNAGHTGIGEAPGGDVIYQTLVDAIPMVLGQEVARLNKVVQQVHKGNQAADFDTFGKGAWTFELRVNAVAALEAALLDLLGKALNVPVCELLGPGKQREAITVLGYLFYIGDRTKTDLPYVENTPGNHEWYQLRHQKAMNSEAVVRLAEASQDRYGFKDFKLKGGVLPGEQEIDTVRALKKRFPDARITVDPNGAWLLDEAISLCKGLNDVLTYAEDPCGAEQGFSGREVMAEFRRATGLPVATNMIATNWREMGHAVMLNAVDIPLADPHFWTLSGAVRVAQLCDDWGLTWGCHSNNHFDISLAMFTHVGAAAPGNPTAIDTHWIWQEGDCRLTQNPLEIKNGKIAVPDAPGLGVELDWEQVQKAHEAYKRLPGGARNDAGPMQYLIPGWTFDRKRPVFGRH
# UniProt Q46889: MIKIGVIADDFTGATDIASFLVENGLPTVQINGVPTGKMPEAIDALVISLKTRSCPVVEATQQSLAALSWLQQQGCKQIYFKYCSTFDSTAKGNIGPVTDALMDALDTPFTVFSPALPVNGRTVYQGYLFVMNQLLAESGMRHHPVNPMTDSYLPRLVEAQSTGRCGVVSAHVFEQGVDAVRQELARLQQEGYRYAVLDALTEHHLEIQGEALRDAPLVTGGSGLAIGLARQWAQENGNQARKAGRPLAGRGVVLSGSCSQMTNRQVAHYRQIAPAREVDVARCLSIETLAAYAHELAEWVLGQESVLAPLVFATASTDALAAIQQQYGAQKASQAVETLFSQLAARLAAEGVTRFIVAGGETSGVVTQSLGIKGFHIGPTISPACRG
# UniProt Q47536: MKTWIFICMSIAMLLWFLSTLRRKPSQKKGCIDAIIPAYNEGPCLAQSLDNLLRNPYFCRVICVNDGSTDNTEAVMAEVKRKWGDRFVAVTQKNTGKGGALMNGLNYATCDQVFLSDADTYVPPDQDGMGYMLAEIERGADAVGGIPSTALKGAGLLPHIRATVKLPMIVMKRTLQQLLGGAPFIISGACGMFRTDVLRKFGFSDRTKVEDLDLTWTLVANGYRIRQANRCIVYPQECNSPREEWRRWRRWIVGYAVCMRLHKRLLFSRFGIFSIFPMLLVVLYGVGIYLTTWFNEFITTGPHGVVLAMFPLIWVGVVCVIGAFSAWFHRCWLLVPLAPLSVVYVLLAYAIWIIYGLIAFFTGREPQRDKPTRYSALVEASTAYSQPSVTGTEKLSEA
# UniProt Q46911: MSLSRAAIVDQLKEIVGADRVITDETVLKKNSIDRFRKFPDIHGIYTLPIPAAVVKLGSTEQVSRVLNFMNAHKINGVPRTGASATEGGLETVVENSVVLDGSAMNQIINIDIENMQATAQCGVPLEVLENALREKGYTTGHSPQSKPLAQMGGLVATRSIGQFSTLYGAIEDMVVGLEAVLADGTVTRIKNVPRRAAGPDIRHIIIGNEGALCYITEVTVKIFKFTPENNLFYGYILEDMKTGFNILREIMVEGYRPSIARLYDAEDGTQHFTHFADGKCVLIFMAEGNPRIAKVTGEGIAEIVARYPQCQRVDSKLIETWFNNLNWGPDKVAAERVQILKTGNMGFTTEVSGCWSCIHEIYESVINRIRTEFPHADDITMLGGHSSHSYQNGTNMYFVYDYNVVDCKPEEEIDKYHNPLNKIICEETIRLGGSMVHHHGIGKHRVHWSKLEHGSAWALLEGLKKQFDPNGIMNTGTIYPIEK
# Some of the results follow. Most values lie at the level of the controls, where differences are scatter.
# Compound: CC1(C)S[C@@H]2[C@H](NC(=O)[C@H](N)c3ccccc3)C(=O)N2[C@H]1C(=O)O [ampicillin]
# Experiment: log2 fold change of tryptic peptide abundance, ligand vs vehicle (limited proteolysis) (log2 ratio); higher = more trypsin-susceptible (destabilized)
# Settings: ligand concentration: 10 uM; sample: E. coli crude lysate
row,Target,log2 fold change
1,"UniProt Q46810 (peptide sequence: NALQFCSR, peptide start residue: 38)",-0.0394
2,"UniProt Q47690 (peptide sequence: VLVENPELIR, peptide start residue: 43)",-0.161
3,"UniProt P77737 (peptide sequence: QWFWQPPK, peptide start residue: 28)",-0.346
4,"UniProt P77743 (peptide sequence: LLTPQQALEK, peptide start residue: 494)",0.734
5,"UniProt P77795 (peptide sequence: KPSQLSGGQR, peptide start residue: 131)",-0.817
6,"UniProt Q46904 (peptide sequence: EPQNLFPLYHHNVER, peptide start residue: 334)",0.192
7,"UniProt Q46809 (peptide sequence: VSTENVHR, peptide start residue: 160)",-0.117
8,"UniProt Q46915 (peptide sequence: LKGGVLPGEQEIDTVR, peptide start residue: 205)",-0.211
9,"UniProt Q46889 (peptide sequence: HHPVNPMTDSYLPR, peptide start residue: 143)",-0.391
10,"UniProt Q47536 (peptide sequence: WGDRFVAVTQK, peptide start residue: 83)",-0.0493
11,"UniProt Q46911 (peptide sequence: GYTTGHSPQSKPLAQMGGLVATR, peptide start residue: 137)",0.325
